In ChEMBL document CHEMBL1157379, “Transcriptional response of Candida parapsilosis following exposure to farnesol” (2007):
The source gives many values for each of these; only a part stands here.

Columns and labels:
Type in all cases: functional
Candida parapsilosis [1] = test: Increase in CGD gene ortholog accession number orf19.2288 expression in Candida parapsilosis CLIB214 at 50 uM after 2 hrs by microarray based transcriptional profiling relative to control
Candida parapsilosis [2] = test: Decrease in CGD gene ortholog accession number orf19.7629 expression in Candida parapsilosis CLIB214 at 50 uM after 2 hrs by microarray based transcriptional profiling relative to control
Candida parapsilosis [3] = test: Increase in NDE1 gene expression in Candida parapsilosis CLIB214 at 50 uM after 2 hrs by microarray based transcriptional profiling relative to control
Candida parapsilosis [4] = test: Increase in CGD gene ortholog accession number orf19.1317 expression in Candida parapsilosis CLIB214 at 50 uM after 2 hrs by microarray based transcriptional profiling relative to control
Candida parapsilosis [5] = test: Increase in CDC12 gene expression in Candida parapsilosis CLIB214 at 50 uM after 2 hrs by microarray based transcriptional profiling relative to control
Candida parapsilosis [6] = test: Decrease in OPT5 gene expression in Candida parapsilosis CLIB214 at 50 uM after 2 hrs by microarray based transcriptional profiling relative to control
Candida parapsilosis [7] = test: Increase in GRE3 gene expression in Candida parapsilosis CLIB214 at 50 uM after 2 hrs by microarray based transcriptional profiling relative to control
Candida parapsilosis [8] = test: Increase in SNF1 gene expression in Candida parapsilosis CLIB214 at 50 uM after 2 hrs by microarray based transcriptional profiling relative to control
Candida parapsilosis [9] = test: Increase in CGD gene ortholog accession number orf19.5247 expression in Candida parapsilosis CLIB214 at 50 uM after 2 hrs by microarray based transcriptional profiling relative to control
Candida parapsilosis [10] = test: Reduction in VTC3 gene expression in Candida parapsilosis CLIB214 by RT-PCR
Candida parapsilosis [11] = test: Increase in GenBank accession number NP_943642.1 expression in Candida parapsilosis CLIB214 at 50 uM after 2 hrs by microarray based transcriptional profiling relative to control
Candida parapsilosis [12] = test: Increase in CAT1 gene expression in Candida parapsilosis CLIB214 at 50 uM after 2 hrs by microarray based transcriptional profiling relative to control
Candida parapsilosis [13] = test: Increase in CGD gene ortholog accession number orf19.2310 expression in Candida parapsilosis CLIB214 at 50 uM after 2 hrs by microarray based transcriptional profiling relative to control
Candida parapsilosis [14] = test: Decrease in CGD gene ortholog accession number orf19.3084 expression in Candida parapsilosis CLIB214 at 50 uM after 2 hrs by microarray based transcriptional profiling relative to control
Candida parapsilosis [15] = test: Decrease in SGS1 gene expression in Candida parapsilosis CLIB214 at 50 uM after 2 hrs by microarray based transcriptional profiling relative to control
Candida parapsilosis [16] = test: Decrease in FMP27 gene expression in Candida parapsilosis CLIB214 at 50 uM after 2 hrs by microarray based transcriptional profiling relative to control
Candida parapsilosis [17] = test: Increase in CGD gene ortholog accession number orf19.658 expression in Candida parapsilosis CLIB214 at 50 uM after 2 hrs by microarray based transcriptional profiling relative to control
Candida parapsilosis [18] = test: Increase in CGD gene ortholog accession number orf19.239 expression in Candida parapsilosis CLIB214 at 50 uM after 2 hrs by microarray based transcriptional profiling relative to control
Candida parapsilosis [19] = test: Decrease in CGD gene ortholog accession number orf19.833 expression in Candida parapsilosis CLIB214 at 50 uM after 2 hrs by microarray based transcriptional profiling relative to control
Candida parapsilosis [20] = test: Decrease in CGD gene ortholog accession number orf19.606 expression in Candida parapsilosis CLIB214 at 50 uM after 2 hrs by microarray based transcriptional profiling relative to control
Candida parapsilosis [21] = test: Increase in GCV1 gene expression in Candida parapsilosis CLIB214 at 50 uM after 2 hrs by microarray based transcriptional profiling relative to control
Candida parapsilosis [22] = test: Increase in GenBank accession number NP_943632.1 expression in Candida parapsilosis CLIB214 at 50 uM after 2 hrs by microarray based transcriptional profiling relative to control
Candida parapsilosis [23] = test: Increase in GenBank accession number NP_943638.1 expression in Candida parapsilosis CLIB214 at 50 uM after 2 hrs by microarray based transcriptional profiling relative to control
Candida parapsilosis [24] = test: Increase in CGD gene ortholog accession number orf19.5407 expression in Candida parapsilosis CLIB214 at 50 uM after 2 hrs by microarray based transcriptional profiling relative to control
Candida parapsilosis [25] = test: Increase in LSP1 gene expression in Candida parapsilosis CLIB214 at 50 uM after 2 hrs by microarray based transcriptional profiling relative to control
Candida parapsilosis [26] = test: Decrease in CGD gene ortholog accession number orf19.1355 expression in Candida parapsilosis CLIB214 at 50 uM after 2 hrs by microarray based transcriptional profiling relative to control
Candida parapsilosis [27] = test: Decrease in CGD gene ortholog accession number orf19.3573 expression in Candida parapsilosis CLIB214 at 50 uM after 2 hrs by microarray based transcriptional profiling relative to control
Candida parapsilosis [28] = test: Decrease in HEM2 gene expression in Candida parapsilosis CLIB214 at 50 uM after 2 hrs by microarray based transcriptional profiling relative to control
Candida parapsilosis [29] = test: Decrease in HOF1 gene expression in Candida parapsilosis CLIB214 at 50 uM after 2 hrs by microarray based transcriptional profiling relative to control
Candida parapsilosis [30] = test: Decrease in CGD gene ortholog accession number orf19.6173 expression in Candida parapsilosis CLIB214 at 50 uM after 2 hrs by microarray based transcriptional profiling relative to control
Candida parapsilosis [31] = test: Decrease in PHO91 gene expression in Candida parapsilosis CLIB214 at 50 uM after 2 hrs by microarray based transcriptional profiling relative to control
Candida parapsilosis [32] = test: Decrease in CGD gene ortholog accession number orf19.587 expression in Candida parapsilosis CLIB214 at 50 uM after 2 hrs by microarray based transcriptional profiling relative to control
Candida parapsilosis [33] = test: Decrease in CGD gene ortholog accession number orf19.101 expression in Candida parapsilosis CLIB214 at 50 uM after 2 hrs by microarray based transcriptional profiling relative to control
Candida parapsilosis [34] = test: Decrease in CGD gene ortholog accession number orf19.2788 expression in Candida parapsilosis CLIB214 at 50 uM after 2 hrs by microarray based transcriptional profiling relative to control
Candida parapsilosis [35] = test: Increase in ASC1 gene expression in Candida parapsilosis CLIB214 at 50 uM after 2 hrs by microarray based transcriptional profiling relative to control
Candida parapsilosis [36] = test: Increase in ILV5 gene expression in Candida parapsilosis CLIB214 at 50 uM after 2 hrs by microarray based transcriptional profiling relative to control
Candida parapsilosis [37] = test: Decrease in CGD gene ortholog accession number orf19.1307 expression in Candida parapsilosis CLIB214 at 50 uM after 2 hrs by microarray based transcriptional profiling relative to control

CC(C)=CCC/C(C)=C/CC/C(C)=C/CO [FARNESOL]
fold change (FC) (Candida parapsilosis [1]): 2.19
fold change (FC) (Candida parapsilosis [2]): 2.09
fold change (FC) (Candida parapsilosis [3]): 2.17
fold change (FC) (Candida parapsilosis [4]): 2.11
fold change (FC) (Candida parapsilosis [5]): 1.76
fold change (FC) (Candida parapsilosis [6]): 2.04
fold change (FC) (Candida parapsilosis [7]): 1.74
fold change (FC) (Candida parapsilosis [8]): 1.57
fold change (FC) (Candida parapsilosis [9]): 1.56
fold change (FC) (Candida parapsilosis [10]): 1.52
fold change (FC) (Candida parapsilosis [11]): 1.95
fold change (FC) (Candida parapsilosis [12]): 1.95
fold change (FC) (Candida parapsilosis [13]): 1.93
fold change (FC) (Candida parapsilosis [14]): 1.57
fold change (FC) (Candida parapsilosis [15]): 1.59
fold change (FC) (Candida parapsilosis [16]): 1.67
fold change (FC) (Candida parapsilosis [17]): 1.83
fold change (FC) (Candida parapsilosis [18]): 1.8
fold change (FC) (Candida parapsilosis [19]): 1.61
fold change (FC) (Candida parapsilosis [20]): 1.62
fold change (FC) (Candida parapsilosis [21]): 3.3
fold change (FC) (Candida parapsilosis [22]): 2.98
fold change (FC) (Candida parapsilosis [23]): 4.5
fold change (FC) (Candida parapsilosis [24]): 1.66
fold change (FC) (Candida parapsilosis [25]): 1.65
fold change (FC) (Candida parapsilosis [26]): 1.52
fold change (FC) (Candida parapsilosis [27]): 1.52
fold change (FC) (Candida parapsilosis [28]): 1.55
fold change (FC) (Candida parapsilosis [29]): 2.93
fold change (FC) (Candida parapsilosis [30]): 3.98
fold change (FC) (Candida parapsilosis [31]): 1.69
fold change (FC) (Candida parapsilosis [32]): 1.7
fold change (FC) (Candida parapsilosis [33]): 1.82
fold change (FC) (Candida parapsilosis [34]): 1.83
fold change (FC) (Candida parapsilosis [35]): 2.63
fold change (FC) (Candida parapsilosis [36]): 2.61
fold change (FC) (Candida parapsilosis [37]): 1.87
